Not every detail of the peptide structures is certain; ends, links or a residue may be inferred.
Test system: HSV-1, clinical isolate "corneae"
Experiment: Action of HOE 140 on skin lesions caused by HSV-1 in hairless mice (experiment 12/93)
Format: in vivo, immunocompetent hairless mice (hr/hr)
Conditions: for Average survival time: 2x daily for 10 days from day 4, animals which died

SMILES: N=C(N)NCCC[C@@H](N)C(=O)N[C@@H](CCCNC(=N)N)C(=O)N1CCC[C@H]1C(=O)N1C[C@H](O)C[C@H]1C(=O)NCC(=O)N[C@@H](Cc1cccs1)C(=O)N[C@@H](CO)C(=O)N1Cc2ccccc2C[C@@H]1C(=O)N1[C@H](C(=O)N[C@@H](CCCNC(=N)N)C(=O)O)C[C@@H]2CCCC[C@@H]21 [HOE 140]
- Average survival time (1 mg/kg s.c.): 8.0 ± 0 days
- Average survival time (5 mg/kg s.c.): 8.0 ± 0 days
- Average survival time (1% topically): 9.0 ± 1.4 days
- Average survival time (5% topically): 9.0 ± 2.0 days
- Survival rate versus untreated controls (treated animals pooled, Chi^2 test): influenced less (not significant, Chi^2 test)
